Laboratory results published in patent US20200405832A1 (MINERVA BIOTECHNOLOGIES, published 2020).
These are yes or no findings as the source states them, for the method shown. Some entries that bind do so weakly or less than the wild type.

Amino acid sequences for entries named in this document (tags omitted). A change or cut given only in a name is not applied to a line headed by its entry.
UniProt P15941: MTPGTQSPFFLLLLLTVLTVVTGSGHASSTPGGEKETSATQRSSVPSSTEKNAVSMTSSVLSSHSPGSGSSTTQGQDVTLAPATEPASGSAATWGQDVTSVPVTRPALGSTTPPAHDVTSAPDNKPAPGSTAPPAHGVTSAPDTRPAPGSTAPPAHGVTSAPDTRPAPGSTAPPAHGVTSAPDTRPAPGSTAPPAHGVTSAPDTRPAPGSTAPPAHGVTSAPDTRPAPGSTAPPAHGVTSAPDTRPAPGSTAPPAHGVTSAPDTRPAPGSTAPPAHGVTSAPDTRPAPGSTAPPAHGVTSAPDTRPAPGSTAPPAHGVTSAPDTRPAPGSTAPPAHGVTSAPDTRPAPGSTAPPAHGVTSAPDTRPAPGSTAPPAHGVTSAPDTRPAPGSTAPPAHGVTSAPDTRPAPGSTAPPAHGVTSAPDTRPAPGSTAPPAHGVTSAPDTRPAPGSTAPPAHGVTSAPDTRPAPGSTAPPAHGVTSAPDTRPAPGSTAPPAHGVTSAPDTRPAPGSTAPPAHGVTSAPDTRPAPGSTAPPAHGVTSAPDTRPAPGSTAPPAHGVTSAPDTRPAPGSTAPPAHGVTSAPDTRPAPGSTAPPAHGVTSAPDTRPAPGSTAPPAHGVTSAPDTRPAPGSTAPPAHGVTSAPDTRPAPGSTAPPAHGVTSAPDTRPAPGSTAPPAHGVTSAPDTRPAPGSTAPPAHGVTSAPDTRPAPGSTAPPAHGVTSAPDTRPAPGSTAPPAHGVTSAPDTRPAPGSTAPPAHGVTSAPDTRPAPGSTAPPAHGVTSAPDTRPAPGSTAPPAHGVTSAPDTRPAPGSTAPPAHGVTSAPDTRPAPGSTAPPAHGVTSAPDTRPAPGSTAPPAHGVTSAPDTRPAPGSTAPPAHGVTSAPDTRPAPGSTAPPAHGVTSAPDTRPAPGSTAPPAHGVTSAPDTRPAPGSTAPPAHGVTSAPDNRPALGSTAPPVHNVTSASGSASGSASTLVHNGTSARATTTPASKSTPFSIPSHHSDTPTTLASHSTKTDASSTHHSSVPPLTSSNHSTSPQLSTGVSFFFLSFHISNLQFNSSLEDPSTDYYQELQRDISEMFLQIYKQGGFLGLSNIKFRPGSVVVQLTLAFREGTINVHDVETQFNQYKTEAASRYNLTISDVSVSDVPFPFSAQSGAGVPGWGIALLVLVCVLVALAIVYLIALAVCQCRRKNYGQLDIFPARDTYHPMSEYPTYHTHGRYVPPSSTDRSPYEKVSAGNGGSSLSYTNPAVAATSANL

Molecular target: MUC1* as on cancer cells and cancerous tissue (T47D breast cancer cells, DU145 prostate cancer cells) (human) (UniProt P15941)
Experiment: tissue binding; assay not described

binding: binds
B1: mouse monoclonal antibody MN-E6 (antibody, V domains shown)
VH: EVKVVESGGDLVKPGGSLKLSCVVSGFTFSRYGMSWVRQTPGKRLEWVATISGGGTYIYYPDSVKGRFTISRDNAKNTLYLQMSSLKSEDTAMYHCTRDNYGRNYDYGMDYWGQGTSVTVSS
VL: QIVLTQSPAIMSASPGEEVTLTCSATSSVSYIHWFQQRPGTSPKLWIYSTSNLASGVPVRFSGSGYGTSYSLTISRMEAEDAATYYCQQRSSSPFTFGSGTKLEIK
notes: also called Min-E6
